From PMC5946105
These are yes or no findings as the source states them, for the method shown. Binding seen in cells or lysates may run through a third protein. Some entries that bind do so weakly or less than the wild type.

The chains behind the UniProt entries cited, without tags or fusion partners.
UniProt P12814: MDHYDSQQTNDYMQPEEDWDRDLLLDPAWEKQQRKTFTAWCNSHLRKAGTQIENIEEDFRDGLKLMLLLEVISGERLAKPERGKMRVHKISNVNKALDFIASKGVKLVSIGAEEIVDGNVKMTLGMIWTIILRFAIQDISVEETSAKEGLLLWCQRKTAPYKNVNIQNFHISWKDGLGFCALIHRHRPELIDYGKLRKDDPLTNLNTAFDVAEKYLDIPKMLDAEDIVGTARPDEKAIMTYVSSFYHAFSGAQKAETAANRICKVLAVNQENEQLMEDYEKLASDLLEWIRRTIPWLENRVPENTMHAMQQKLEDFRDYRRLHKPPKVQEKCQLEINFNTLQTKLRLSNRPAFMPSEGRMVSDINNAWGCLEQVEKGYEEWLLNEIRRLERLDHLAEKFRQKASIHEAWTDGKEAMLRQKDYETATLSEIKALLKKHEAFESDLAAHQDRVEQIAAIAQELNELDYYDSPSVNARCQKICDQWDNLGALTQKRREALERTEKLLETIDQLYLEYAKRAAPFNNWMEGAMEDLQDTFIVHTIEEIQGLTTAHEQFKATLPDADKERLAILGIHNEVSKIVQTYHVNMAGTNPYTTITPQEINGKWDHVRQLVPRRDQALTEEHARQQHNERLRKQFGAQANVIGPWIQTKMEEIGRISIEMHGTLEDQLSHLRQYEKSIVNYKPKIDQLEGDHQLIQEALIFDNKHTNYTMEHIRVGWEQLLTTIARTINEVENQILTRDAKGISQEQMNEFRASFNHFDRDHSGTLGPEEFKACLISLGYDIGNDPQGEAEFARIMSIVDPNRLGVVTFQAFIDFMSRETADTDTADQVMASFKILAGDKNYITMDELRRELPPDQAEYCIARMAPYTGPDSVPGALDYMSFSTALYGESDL

How the values were obtained:
[1] = target: α-actinin-1–GST (human) (UniProt P12814); experiment: pull-down; 5 µg α-actinin-1–GST coupled to glutathione sepharose beads; lysate of MCF10A flotillin-2 shRNA cells (about 20% of flotillin-1 left), 1.2 mg total protein; Western blot; only the target purified
[2] = target: α-actinin-1–GST (human) (UniProt P12814); experiment: pull-down; 5 µg α-actinin-1–GST coupled to glutathione sepharose beads; MCF10A control cell lysate, 1.2 mg total protein; Western blot; only the target purified

B1: flotillin-1 (protein, UniProt O75955 1-427)
chain: MFFTCGPNEAMVVSGFCRSPPVMVAGGRVFVLPCIQQIQRISLNTLTLNVKSEKVYTRHGVPISVTGIAQVKIQGQNKEMLAAACQMFLGKTEAEIAHIALETLEGHQRAIMAHMTVEEIYKDRQKFSEQVFKVASSDLVNMGISVVSYTLKDIHDDQDYLHSLGKARTAQVQKDARIGEAEAKRDAGIREAKAKQEKVSAQYLSEIEMAKAQRDYELKKAAYDIEVNTRRAQADLAYQLQVAKTKQQIEEQRVQVQVVERAQQVAVQEQEIARREKELEARVRKPAEAERYKLERLAEAEKSQLIMQAEAEAASVRMRGEAEAFAIGARARAEAEQMAKKAEAFQLYQEAAQLDMLLEKLPQVAEEISGPLTSANKITLVSSGSGTMGAAKVTGEVLDILTRLPESVERLTGVSISQVNHKPLRTA
For B1, the binding [1] was “binds weakly” and the binding [2] was “binds”.
